US4056626A, “Pharmaceutical composition containing benzofuran derivative” (Kakenyaku Kako Co., Ltd., priority 1971, dated 1977)

System: isoproterenol antagonism concerning myocardial contractile force and heart rate in isolated guinea-pig atria
Assay: isoproterenol antagonism in isolated guinea-pig atria
Conditions: 37° C., isoproterenol 1 × 10^-8 g./ml., 50% inhibition
Procedure: With respect to the present benzofuran derivatives and Propranolol, there was tested isoproterenol antagonism concerning myocardial contractile force and heart rate in isolated guinea-pig atria (Cf. The Journal of Pharmacology and Experimental Therapeutics, Vol. 168, No. 1, pages 116 to 126, 1969).
Isolated guinea-pig atrium was mounted in a chamber containing Ringer-Lockesolution (37° C.), through which a mixed gas of 95% O2 and 5% CO2 was continuously bubbled. Isoproterenol was added to the solution at a concentration of 1 × 10^-^8 g./ml. 50% inhibitions of isopreterenol responses and relative activities were determined by the same manner as described in Example 54.

`CC(C)NCC(O)COc1cccc2ccccc12` (centres unmarked) [Propranolol, reference compound] was tested, and the “Inhibition of increase in heart rate ED 50” value was 100 ng/mL and the “Inhibition of increase in myocardial contractile force ED 50” value was 10 ng/mL.
